{"source": "patent US4992418A", "about": "(Mount Sinai School of Medicine, priority 1987, dated 1991)", "experiment": "general procedure: solution-phase peptide synthesis; DCC/HOBT", "conditions": "coupling step", "data": [{"substance": "Boc.Asp(cHex)-Leu-Val-Glu(cHex)-Ala.OBu^t", "values": [{"measurement": "step yield", "result": 85, "unit": "%"}]}, {"substance": "Boc.Ser(Bzl)-Asp(cHex)-Leu-Val-Glu(cHex)-Ala-Leu-Tyr(Bzl)-Leu-Val-Cys(Dpm)- Gly-Glu(Bzl)-Arg(NO2)-Gly-Phe-Phe-Tyr(Bzl)-Thr-Pro-Lys(Z)-Thr(Bzl).OBzl", "values": [{"measurement": "step yield", "result": 88, "unit": "%"}]}, {"substance": "Boc.Ser(Bzl)-Asp(cHex)-Leu-Val-Glu(cHex)-Ala.OH", "values": [{"measurement": "step yield", "result": 90, "unit": "%"}]}, {"substance": "Z.Leu-Val-Glu (cHex)-Ala.OBu^t", "values": [{"measurement": "step yield", "result": 88, "unit": "%"}]}]}
